Some of these results come from one statement about several compounds together.
Experiments:
Type in all cases: in vivo
[1] = system: Spodoptera littoralis (Egyptian Cotton Leaf Worm); assay: Activity against Spodoptera littoralis, systemic activity; details: test rate of 12.5 ppm, in agar, lettuce root uptake, 6 days after infestation
Description: Example B11: Activity Against Spodoptera littoralis (Egyptian Cotton Leaf Worm), Systemic Activity
(§1) Test compounds were applied by pipette from 10′000 ppm DMSO stock solutions into 24-well plates and mixed with agar. Lettuce seeds were placed on the agar and the multi well plate was closed by another plate which contains also agar. After 7 days the roots have absorbed the compound and the lettuce has grown into the lid plate. The lettuce leafs were now cut off into the lid plate. Spodoptera eggs were pipetted through a plastic stencil on a humid gel blotting paper and the plate closed with it. The samples were assessed for mortality 6 days after infestation.

[2] = system: Spodoptera littoralis (Egyptian Cotton Leaf Worm); assay: Activity against Spodoptera littoralis, compound in agar taken up by lettuce; details: test rate of 12.5 ppm, lettuce root uptake, 6 days after infestation
Description: Example B10: Activity Against Spodoptera littoralis (Egyptian Cotton Leaf Worm)
as §1, with “mortality, anti-feedant effect and growth inhibition in comparison to untreated samples” for “mortality”

[3] = system: Euschistus heros (Neotropical Brown Stink Bug); assay: Activity against Euschistus heros, sprayed soybean leaf; details: application rate of 200 ppm; N-2 nymphs on soybean leaf; 5 days after infestation
Method: Example B3: Activity Against Euschistus heros (Neotropical Brown Stink Bug)
Soybean leaf on agar in 24-well microtiter plates were sprayed with aqueous test solutions prepared from 10′000 ppm DMSO stock solutions. After drying the leaf were infested with N-2 nymphs. The samples were assessed for mortality 5 days after infestation.

[4] = system: Aedes aegypti (Yellow Fever Mosquito); details: test rate of 5 ppm; L2 larvae in 96-well plates; incubation period of 2 days
Method: Example B14: Activity Against Aedes aegypti (Yellow Fever Mosquito)
10 to 15 Aedes larvae (L2) together with a nutrition mixture were placed in 96-well microtiter plates. Test compounds were pipetted into the wells. After an incubation period of 2 days insects were assessed for mortality and growth inhibition.

[5] = system: Spodoptera littoralis (Egyptian Cotton Leaf Worm); assay: Activity against Spodoptera littoralis, sprayed cotton leaf discs; details: application rate of 200 ppm; L1 larvae on cotton leaf discs; 3 days after infestation
Method: Example B9: Activity Against Spodoptera littoralis (Egyptian Cotton Leaf Worm)
Cotton leaf discs were placed on agar in 24-well microtiter plates and sprayed with aqueous test solutions prepared from 10′000 ppm DMSO stock solutions. After drying the leaf discs were infested with five L1 larvae. The samples were assessed for mortality, anti-feedant effect, and growth inhibition in comparison to untreated samples 3 days after infestation. Control of Spodoptera littoralis by a test sample is when at least one of mortality, anti-feedant effect, and growth inhibition is higher than the untreated sample.

[6] = system: Plutella xylostella (Diamond Back Moth); assay: Activity against Plutella xylostella, treated artificial diet; details: application rate of 200 ppm; L2 larvae on artificial diet; 5 days after infestation
Method: Example B8: Activity Against Plutella xylostella (Diamond Back Moth)
24-well microtiter plates with artificial diet were treated with aqueous test solutions prepared from 10′000 ppm DMSO stock solutions by pipetting. After drying, the plates were infested with L2 larvae (10 to 15 per well). The samples were assessed for mortality and growth inhibition in comparison to untreated samples 5 days after infestation.

[7] = system: Myzus persicae (Green Peach Aphid); assay: Activity against Myzus persicae, sprayed sunflower leaf discs; details: application rate of 200 ppm; aphid population of mixed ages on sunflower leaf discs; 6 days after infestation
Method: Example B5: Activity Against Myzus persicae (Green Peach Aphid)
(§2) Sunflower leaf discs were placed on agar in a 24-well microtiter plate and sprayed with aqueous test solutions prepared from 10′000 ppm DMSO stock solutions. After drying, the leaf discs were infested with an aphid population of mixed ages. The samples were assessed for mortality 6 days after infestation.

[8] = system: Diabrotica balteata (Corn Root Worm); assay: Activity against Diabrotica balteata, sprayed maize sprouts; details: application rate of 200 ppm; larvae on maize sprouts; 4 days after infestation
Method: Example B2: Activity Against Diabrotica balteata (Corn Root Worm)
Maize sprouts, placed on an agar layer in 24-well microtiter plates were treated with aqueous test solutions prepared from 10′000 ppm DMSO stock solutions by spraying. After drying, the plates were infested with […] (6 to 10 per well). The samples were assessed for mortality 4 days after infestation.

[9] = system: Thrips tabaci (Onion Thrips); assay: Activity against Thrips tabaci, feeding/contact activity; details: application rate of 200 ppm; thrips population of mixed ages on sunflower leaf discs; 6 days after infestation
Method: Example B13: Activity Against Thrips tabaci (Onion Thrips) Feeding/Contact Activity
as §2, with “in” for “in a”, “plates” for “plate”, “drying” for “drying,”, “a thrips” for “an aphid”

[10] = system: Frankliniella occidentalis (Western Flower Thrips); assay: Activity against Frankliniella occidentalis, sprayed sunflower leaf discs; details: application rate of 200 ppm; population of mixed ages on sunflower leaf discs; 7 days after infestation
Method: Example B4: Activity Against Frankliniella occidentalis (Western Flower Thrips)
as §2, with “in” for “in a”, “plates” for “plate”, “[…]” for “10′000 ppm”, “drying” for “drying,”, “a Frankliniella” for “an aphid”, “7” for “6”

[11] = system: Bemisia tabaci (Cotton White Fly); assay: Activity against Bemisia tabaci, sprayed cotton leaf discs; details: application rate of 200 ppm; adult white flies on cotton leaf discs; 6 days after incubation
Method: Example B1: Activity Against Bemisia tabaci (Cotton White Fly)
Cotton leaf discs were placed on agar in 24-well microtiter plates and sprayed with aqueous test solutions prepared from 10′000 ppm DMSO stock solutions. After drying the leaf discs were infested with adult white flies. The samples were checked for mortality 6 days after incubation. […] A35, A36 and A47. A1. A2, A3, A8, A10, A14 and A12.

[12] = system: Myzus persicae (Green Peach Aphid); assay: Activity against Myzus persicae, sucrose solution under Parafilm; details: test rate of 12 ppm, mixed with sucrose solution, 5 days after infestation
Description: Example B7: Activity Against Myzus persicae (Green Peach Aphid)
Test compounds from 10′000 ppm DMSO stock solutions were applied by pipette into 24-well microtiter plates and mixed with sucrose solution. The plates were closed with a stretched Parafilm. A plastic stencil with 24 holes was placed onto the plate and infested pea seedlings were placed directly on the Parafilm. The infested plate was closed with a gel blotting paper and another plastic stencil and then turned upside down. The samples were assessed for mortality 5 days after infestation. […] A30 and A32.

[13] = system: Myzus persicae (Green Peach Aphid); assay: Activity against Myzus persicae, roots of infested pea seedlings in test solution; details: test rate of 24 ppm, 6 days
Method: Example B6: Activity Against Myzus persicae (Green Peach Aphid)
Roots of pea seedlings infested with an aphid population of mixed ages were placed directly in the aqueous test solutions prepared from 10′000 DMSO stock solutions. The samples were assessed for mortality 6 days after placing seedlings in test solutions.

CCS(=O)(=O)c1cc(C2CC2)ccc1-c1nc2cc(C(F)(F)F)n(C)c(=O)c2n1C [Compound A39]
at least 80%: mortality [1] | effect in at least one of the three categories (mortality, anti-feedancy, or growth inhibition) [2] | mortality [3] | effect in at least one of the two categories (mortality or growth inhibition) [4] | control (at least one of mortality, anti-feedant effect, growth inhibition) [5] | effect in at least one of the two categories (mortality or growth inhibition) [6] | mortality [7] | mortality [8]

CCS(=O)(=O)c1cc(-c2ccc(F)cc2)cnc1-c1nc2cc(C(F)(F)F)n(C)c(=O)c2n1C [Compound A54]
at least 80%: mortality [9] | mortality [3] | control (at least one of mortality, anti-feedant effect, growth inhibition) [5] | effect in at least one of the two categories (mortality or growth inhibition) [6] | mortality [7] | mortality [8]

CCn1c(C(F)(F)F)cc2nc(-c3ncc(C(F)(F)C(F)(F)F)cc3S(=O)(=O)CC)n(C)c2c1=O [Compound A47]
at least 80%: mortality [1] | effect in at least one of the three categories (mortality, anti-feedancy, or growth inhibition) [2] | mortality [3] | effect in at least one of the two categories (mortality or growth inhibition) [4] | mortality [10] | control (at least one of mortality, anti-feedant effect, growth inhibition) [5] | mortality [11] | effect in at least one of the two categories (mortality or growth inhibition) [6] | mortality [7] | mortality [8]

CC#CCn1c(C(F)(F)F)cc2nc(-c3ncc(C(F)(F)F)cc3S(=O)(=O)CC)n(C)c2c1=O [Compound A7]
at least 80%: control (at least one of mortality, anti-feedant effect, growth inhibition) [5] | effect in at least one of the two categories (mortality or growth inhibition) [6] | mortality [12] | mortality [8]

CCS(=O)(=O)c1cc(C(F)(F)F)cnc1-c1nc2cc(C(F)(F)F)n(COCCOC)c(=O)c2n1C [Compound A8]
at least 80%: mortality [1] | effect in at least one of the three categories (mortality, anti-feedancy, or growth inhibition) [2] | mortality [3] | control (at least one of mortality, anti-feedant effect, growth inhibition) [5] | mortality [11] | mortality [13] | effect in at least one of the two categories (mortality or growth inhibition) [6] | mortality [7] | mortality [12] | mortality [8]

CCn1c(C(F)(F)F)cc2nc(-c3ncc(C4CC4)cc3S(=O)(=O)CC)n(C)c2c1=O [Compound A34]
at least 80%: mortality [1] | mortality [3] | effect in at least one of the two categories (mortality or growth inhibition) [4] | mortality [10] | control (at least one of mortality, anti-feedant effect, growth inhibition) [5] | mortality [11] | mortality [13] | effect in at least one of the two categories (mortality or growth inhibition) [6] | mortality [7] | mortality [8]

CCSc1cc(Br)cnc1-c1nc2cc(C(F)(F)F)n(CC)c(=O)c2n1C [Compound A30]
at least 80%: effect in at least one of the three categories (mortality, anti-feedancy, or growth inhibition) [2] | mortality [3] | control (at least one of mortality, anti-feedant effect, growth inhibition) [5] | effect in at least one of the two categories (mortality or growth inhibition) [6] | mortality [7] | mortality [12] | mortality [8]

CCS(=O)(=O)c1cc(-c2ccc(Cl)cc2)cnc1-c1nc2cc(C(F)(F)F)n(C)c(=O)c2n1C [Compound A19]
at least 80%: mortality [3] | effect in at least one of the two categories (mortality or growth inhibition) [4] | mortality [10] | control (at least one of mortality, anti-feedant effect, growth inhibition) [5] | effect in at least one of the two categories (mortality or growth inhibition) [6] | mortality [7] | mortality [8]

C#CCn1c(C(F)(F)F)cc2nc(-c3ncc(C(F)(F)F)cc3S(=O)(=O)CC)n(C)c2c1=O [Compound A10]
at least 80%: mortality [3] | mortality [10] | control (at least one of mortality, anti-feedant effect, growth inhibition) [5] | mortality [11] | effect in at least one of the two categories (mortality or growth inhibition) [6] | mortality [7] | mortality [12] | mortality [8]

CCS(=O)(=O)c1cc(C(F)(F)F)cnc1-c1nc2cc(C(F)(F)F)n(CC=Cc3ccccc3)c(=O)c2n1C [Compound A15]
at least 80%: mortality [9] | control (at least one of mortality, anti-feedant effect, growth inhibition) [5] | effect in at least one of the two categories (mortality or growth inhibition) [6] | mortality [8]

CCn1c(C(F)(F)F)cc2nc(-c3ncc(-c4ccnc(F)c4)cc3S(=O)(=O)CC)n(C)c2c1=O [Compound A49]
at least 80%: mortality [1] | effect in at least one of the three categories (mortality, anti-feedancy, or growth inhibition) [2] | mortality [3] | effect in at least one of the two categories (mortality or growth inhibition) [4] | control (at least one of mortality, anti-feedant effect, growth inhibition) [5] | effect in at least one of the two categories (mortality or growth inhibition) [6] | mortality [7] | mortality [8]

CCSc1cc(-n2ccc(C(F)(F)F)n2)cnc1-c1nc2cc(C(F)(F)F)n(CC)c(=O)c2n1C [Compound A32]
at least 80%: control (at least one of mortality, anti-feedant effect, growth inhibition) [5] | effect in at least one of the two categories (mortality or growth inhibition) [6] | mortality [12] | mortality [8]

— patent US10450311B2, “Pesticidally active heterocyclic derivatives with sulphur containing substituents” (Syngenta Participations AG, priority 2014, dated 2019)
